No constants are given. Whether binding was seen depends on the method and setting. Binding seen in cells or lysates may run through a third protein. Some entries that bind do so weakly or less than the wild type. Blank lines part the entries; values can stand above or below the molecule they belong to.
What was measured:
[1] = biological target: T1, Caspase 7, mouse, endogenous (mouse (endogenous in kidney and primary RTECs)) (UniProt P97864); assay: co-IP; lysate of HG-induced RTECs after transfection of DcR2 siRNA or DcR2 overexpression plasmid; endogenous GRP78 and caspase 7, reciprocal; western blot
T1 sequence: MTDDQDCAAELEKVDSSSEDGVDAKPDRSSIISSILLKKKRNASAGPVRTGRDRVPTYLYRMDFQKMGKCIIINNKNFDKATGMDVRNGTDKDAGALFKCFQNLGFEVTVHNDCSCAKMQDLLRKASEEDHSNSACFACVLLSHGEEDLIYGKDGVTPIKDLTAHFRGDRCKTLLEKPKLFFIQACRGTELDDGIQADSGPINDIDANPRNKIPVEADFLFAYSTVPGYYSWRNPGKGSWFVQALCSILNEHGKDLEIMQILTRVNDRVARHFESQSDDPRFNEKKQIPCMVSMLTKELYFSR

Sequences of proteins named here, by UniProt entry; tags and fusion partners are left off. Residues count along the entry.
UniProt P20029, residues 20-655: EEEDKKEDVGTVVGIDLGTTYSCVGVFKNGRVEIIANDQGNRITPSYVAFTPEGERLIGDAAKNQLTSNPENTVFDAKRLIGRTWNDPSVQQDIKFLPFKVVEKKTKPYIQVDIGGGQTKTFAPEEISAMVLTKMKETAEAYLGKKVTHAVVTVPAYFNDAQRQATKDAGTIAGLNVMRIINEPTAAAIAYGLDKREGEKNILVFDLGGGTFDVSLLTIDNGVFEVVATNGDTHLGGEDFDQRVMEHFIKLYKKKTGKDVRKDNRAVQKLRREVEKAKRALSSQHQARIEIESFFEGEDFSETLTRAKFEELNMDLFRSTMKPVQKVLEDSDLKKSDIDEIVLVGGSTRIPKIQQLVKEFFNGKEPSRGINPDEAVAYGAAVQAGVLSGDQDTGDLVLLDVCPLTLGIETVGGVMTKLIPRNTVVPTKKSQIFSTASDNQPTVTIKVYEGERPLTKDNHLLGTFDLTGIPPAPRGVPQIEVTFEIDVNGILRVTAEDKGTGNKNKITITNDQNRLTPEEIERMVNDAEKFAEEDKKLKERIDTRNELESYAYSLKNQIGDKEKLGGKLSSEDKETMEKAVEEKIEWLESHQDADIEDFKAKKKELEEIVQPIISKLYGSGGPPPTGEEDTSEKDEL

[2] = biological target: T1, Caspase 7, mouse, endogenous (mouse (endogenous in kidney and primary RTECs)); assay: co-IP; renal tissue of STZ-DN mice lysed in IP lysis buffer; antibody on protein A or G magnetic beads, lysate overnight at 4 °C; western blot; endogenous proteins, reciprocal
[3] = biological target: Glucose-related protein 78 kDa (GRP78), mouse, endogenous (mouse (endogenous in kidney and primary RTECs)) (UniProt P20029); assay: co-IP; lysate of HG-induced RTECs after transfection of DcR2 siRNA or DcR2 overexpression plasmid; endogenous GRP78 and caspase 7, reciprocal; western blot
[4] = biological target: Glucose-related protein 78 kDa (GRP78), mouse, endogenous (mouse (endogenous in kidney and primary RTECs)) (UniProt P20029); assay: co-IP; renal tissue of STZ-DN mice lysed in IP lysis buffer; antibody on protein A or G magnetic beads, lysate overnight at 4 °C; western blot; endogenous proteins, reciprocal

binding [1]: binds
binding [2]: binds
Molecule: Glucose-related protein 78 kDa (GRP78), mouse, endogenous (from UniProt P20029 20-655)

binding [3]: binds
binding [4]: binds
B1: Caspase 7, mouse, endogenous (enzyme, UniProt P97864 1-303)
chain: T1 sequence

Source: publication PMC9166763
